The subject of this assay is HUVECs. As to the kind of experiment: Neutrophil TEM restoration studies with PKC inhibitors. Type of assay: cell-based, human. The note with it: HUVEC; inhibitor pretreatment (Go-6983, Go-6976: 1, 10, 100 nM), then 100 nM Bryostatin-1. How it is done: HUVECs were pretreated with Go-6983 (1, 10, 100 nM), or Go-6976 (1, 10, 100 nM) for 30 minutes, then spiked with 100 nM Bryostatin-1 for 1 hour. HUVECs previously nucleofected with PKC-δ, -ε, or control siRNA were just treated in Bryostatin-1 for 1 hour. HUVECs were washed three times and placed in a new plate containing either 500 μL 100 nM LTB4, or HBSS alone for control. Neutrophils were allowed to migrate for 3 h at 37° C. Migration was stopped by removing the inserts and migration was measured using the MPO assay.
Neutrophil migration was measured using myeloperoxidase (MPO) analysis. Cell culture inserts were first removed and plates were spun at 1,500 RPM for 5 min. The supernatant was removed, and MPO activity was measured using TMB/peroxide as chromogen. The reaction was stopped with sulfuric acid and absorbance was read at 450 nm using a microplate reader. All experiments were performed n=6. Data was expressed as “% neutrophil migration”, which allowed cumulative statistical analysis to be done and account for unpreventable batch-to-batch variations.

Regarding `CN[C@@H]1C[C@H]2O[C@@](C)([C@@H]1OC)n1c3ccccc3c3c4c(c5c6ccccc6n2c5c31)C(=O)NC4` [staurosporine], the “restoration of PMN TEM in response to LTB4 by PKC inhibitors (reversal of Bryostatin-1 protection)” value is “did not restore PMN TEM”.
